Assay results as given in patent US9504729B2, “Antiangiogenic small molecules and methods of use” (The United States of America, as represented by the …, priority 2009, dated 2016).
Entries after “also recorded” stand apart in the source; their conditions may differ. Some results were stated once for a whole list of compounds, not compound by compound.

What was measured:
tumor cells (A549, MCF7) = assay: Growth HTS, tumor cells compared with endothelial cells; assay type: cell-based, human; conditions: 1 μM, PAE, BEC
endothelial cells = assay: Primary screening: cell-based growth HTS and tube formation HTS (bioactivity class); conditions: 1 μM

Molecule	growth inhibitory activity in tumor cells vs endothelial cells (tumor cells (A549, MCF7))	type of inhibition (endothelial cell growth and/or tube formation) (endothelial cells)	type of inhibition (endothelial cell growth and/or tube formation) (endothelial cells; listed as compound 67)	type of inhibition (endothelial cell growth and/or tube formation) (endothelial cells; listed as compound 64)
[benzylsulfanyl(sulfoniumylidene) methyl]-(1-pyridin-2- ylethylideneamino)azanide; chlorocopper [Compound 65]	inhibit the growth of both endothelial cells and tumor cells; also recorded: inhibitory activity in both tumor cells and endothelial cells	both endothelial cell growth and tube formation inhibitors	–	–
Cl.O=C1C(=Cc2ccccc2)C(NC2CCCCC2)c2ccccc21 (stereo not drawn) [Compound 67, 2-benzylidene-3-(cyclohexylamino)-3H-inden-1-one chloride]	inhibit the growth of both endothelial cells and tumor cells; also recorded: inhibitory activity in both tumor cells and endothelial cells	–	both endothelial cell growth and tube formation inhibitors	–
O=[N+]([O-])c1ccc(S(=O)(=O)Cc2ccccc2)c([N+](=O)[O-])c1 [Compound 64, 1-benzylsulfonyl-2,4-dinitrobenzene]	inhibit the growth of both endothelial cells and tumor cells; also recorded: inhibitory activity in both tumor cells and endothelial cells	–	–	both endothelial cell growth and tube formation inhibitors
